Data from patent US6936735B2, “Photostable cationic organic sunscreen compounds and compositions obtained therefrom” (EMD Chemicals, Inc., priority 2002, dated 2005).

How the values were obtained:
[1] = Hair substantivity, product uptake from aqueous-ethanolic solution; conditions: aqueous-ethanolic solution (30:70%)
[2] = Hair substantivity, product uptake from aqueous solution; conditions: water solution, 1% concentration, 100 ml on 1 g hair
[3] = tested at 0.25%, corrected to a 1% solution

Compound	% Relative Product Uptake by Hair, 0 min [1, 3] [%]	% Relative Product Uptake by Hair, 2 min [1, 3] [%]	% Relative Product Uptake by Hair, 5 min [1, 3] [%]	% Relative Product Uptake by Hair, 10 min [1, 3] [%]	% Relative Product Uptake by Hair, 0 min ([1]; 1% concentration) [%]	% Relative Product Uptake by Hair, 2 min ([1]; 1% concentration) [%]	% Relative Product Uptake by Hair, 5 min ([1]; 1% concentration) [%]	% Relative Product Uptake by Hair, 10 min ([1]; 1% concentration) [%]	% Relative Product Uptake by Hair, 0 min ([2]; 0 min) [%]	% Relative Product Uptake by Hair, 2 min ([2]; 2 min) [%]	% Relative Product Uptake by Hair, 5 min ([2]; 5 min) [%]	% Relative Product Uptake by Hair, 10 min ([2]; 10 min) [%]
CCCCCCCCCCCC[N+](C)(C)CCCNC(=O)c1ccc(N(C)C)cc1.Cc1ccc(S(=O)(=O)[O-])cc1 [Escalol HP ®-610]	0	2	3	3								
Bis-N-[3(N,N-dimethylamino)propyl]-3,4,5-trimethoxy benzylidene malonamide bis ethylsulfate [Example 3]					0	5	13	18	0	48	56	59
